Reference: paper PMC10516637, “FANCD2 and RAD51 recombinase directly inhibit DNA2 nuclease at stalled replication forks and FANCD2 acts as a novel RAD51 mediator in strand exchange to promote genome stability” (Nucleic Acids Research, 2023)
These are yes or no findings as the source states them, for the method shown. Binding seen in cells or lysates may run through a third protein. Some results given as binding are weak or reduced against the parent protein; the word gives no strength. For part of these data: Where a sequence is shown, tags or fusion partners need not be part of it.

Amino acid sequences for entries named in this document (tags omitted). A change or cut given only in a name is not applied to a line headed by its entry.
UniProt Q06609: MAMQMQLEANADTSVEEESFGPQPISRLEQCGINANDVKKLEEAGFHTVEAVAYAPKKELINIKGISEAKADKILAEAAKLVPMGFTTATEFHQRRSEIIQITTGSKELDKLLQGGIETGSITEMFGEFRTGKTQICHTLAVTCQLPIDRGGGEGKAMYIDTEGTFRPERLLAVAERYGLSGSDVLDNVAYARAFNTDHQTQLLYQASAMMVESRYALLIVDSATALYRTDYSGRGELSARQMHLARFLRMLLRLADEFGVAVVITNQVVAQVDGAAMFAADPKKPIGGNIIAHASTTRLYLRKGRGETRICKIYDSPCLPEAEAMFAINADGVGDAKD
UniProt Q9BXW9: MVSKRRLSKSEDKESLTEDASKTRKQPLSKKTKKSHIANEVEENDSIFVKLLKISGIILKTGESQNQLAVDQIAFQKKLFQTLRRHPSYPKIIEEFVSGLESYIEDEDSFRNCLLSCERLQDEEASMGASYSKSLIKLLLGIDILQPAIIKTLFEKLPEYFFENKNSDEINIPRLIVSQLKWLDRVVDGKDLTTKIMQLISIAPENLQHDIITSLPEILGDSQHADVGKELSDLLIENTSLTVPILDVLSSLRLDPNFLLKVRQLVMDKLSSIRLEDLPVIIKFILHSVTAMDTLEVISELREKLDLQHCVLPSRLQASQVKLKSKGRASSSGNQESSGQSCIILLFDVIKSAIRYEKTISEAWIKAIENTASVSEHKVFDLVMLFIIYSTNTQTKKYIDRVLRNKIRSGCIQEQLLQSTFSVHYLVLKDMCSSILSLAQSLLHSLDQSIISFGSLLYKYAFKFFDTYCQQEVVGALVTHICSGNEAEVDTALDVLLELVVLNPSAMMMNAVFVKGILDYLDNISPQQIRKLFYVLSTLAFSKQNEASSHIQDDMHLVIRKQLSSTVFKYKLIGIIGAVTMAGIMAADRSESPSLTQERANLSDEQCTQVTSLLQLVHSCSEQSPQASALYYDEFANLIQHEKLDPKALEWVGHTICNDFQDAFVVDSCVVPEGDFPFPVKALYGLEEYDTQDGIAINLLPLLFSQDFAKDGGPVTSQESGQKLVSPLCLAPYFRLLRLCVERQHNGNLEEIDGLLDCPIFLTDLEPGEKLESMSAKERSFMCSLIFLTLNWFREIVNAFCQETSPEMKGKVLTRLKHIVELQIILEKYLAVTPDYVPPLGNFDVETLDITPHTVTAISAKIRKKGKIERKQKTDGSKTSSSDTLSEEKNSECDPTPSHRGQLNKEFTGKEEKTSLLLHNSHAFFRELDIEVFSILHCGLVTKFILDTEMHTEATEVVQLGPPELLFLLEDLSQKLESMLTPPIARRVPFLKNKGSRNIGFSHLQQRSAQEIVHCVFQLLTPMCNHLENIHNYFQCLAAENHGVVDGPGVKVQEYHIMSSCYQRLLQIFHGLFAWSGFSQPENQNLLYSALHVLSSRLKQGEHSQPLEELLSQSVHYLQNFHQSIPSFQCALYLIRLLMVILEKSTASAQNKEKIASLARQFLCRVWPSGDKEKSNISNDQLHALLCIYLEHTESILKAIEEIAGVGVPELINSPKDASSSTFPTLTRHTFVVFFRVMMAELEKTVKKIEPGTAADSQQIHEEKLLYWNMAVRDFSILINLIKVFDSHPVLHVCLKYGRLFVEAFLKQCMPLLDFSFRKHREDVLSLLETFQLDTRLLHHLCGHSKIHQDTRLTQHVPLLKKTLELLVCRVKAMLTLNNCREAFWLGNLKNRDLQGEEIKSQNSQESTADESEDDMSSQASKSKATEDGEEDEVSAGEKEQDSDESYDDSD

Assays:
[1] = biological target: T1, FLAG-tagged human DNA2 from 293T cells (human) (UniProt P51530); assay: co-IP; FANCD2 fragments co-immunoprecipitated with DNA2 (Figure 2G); format not told
T1 sequence: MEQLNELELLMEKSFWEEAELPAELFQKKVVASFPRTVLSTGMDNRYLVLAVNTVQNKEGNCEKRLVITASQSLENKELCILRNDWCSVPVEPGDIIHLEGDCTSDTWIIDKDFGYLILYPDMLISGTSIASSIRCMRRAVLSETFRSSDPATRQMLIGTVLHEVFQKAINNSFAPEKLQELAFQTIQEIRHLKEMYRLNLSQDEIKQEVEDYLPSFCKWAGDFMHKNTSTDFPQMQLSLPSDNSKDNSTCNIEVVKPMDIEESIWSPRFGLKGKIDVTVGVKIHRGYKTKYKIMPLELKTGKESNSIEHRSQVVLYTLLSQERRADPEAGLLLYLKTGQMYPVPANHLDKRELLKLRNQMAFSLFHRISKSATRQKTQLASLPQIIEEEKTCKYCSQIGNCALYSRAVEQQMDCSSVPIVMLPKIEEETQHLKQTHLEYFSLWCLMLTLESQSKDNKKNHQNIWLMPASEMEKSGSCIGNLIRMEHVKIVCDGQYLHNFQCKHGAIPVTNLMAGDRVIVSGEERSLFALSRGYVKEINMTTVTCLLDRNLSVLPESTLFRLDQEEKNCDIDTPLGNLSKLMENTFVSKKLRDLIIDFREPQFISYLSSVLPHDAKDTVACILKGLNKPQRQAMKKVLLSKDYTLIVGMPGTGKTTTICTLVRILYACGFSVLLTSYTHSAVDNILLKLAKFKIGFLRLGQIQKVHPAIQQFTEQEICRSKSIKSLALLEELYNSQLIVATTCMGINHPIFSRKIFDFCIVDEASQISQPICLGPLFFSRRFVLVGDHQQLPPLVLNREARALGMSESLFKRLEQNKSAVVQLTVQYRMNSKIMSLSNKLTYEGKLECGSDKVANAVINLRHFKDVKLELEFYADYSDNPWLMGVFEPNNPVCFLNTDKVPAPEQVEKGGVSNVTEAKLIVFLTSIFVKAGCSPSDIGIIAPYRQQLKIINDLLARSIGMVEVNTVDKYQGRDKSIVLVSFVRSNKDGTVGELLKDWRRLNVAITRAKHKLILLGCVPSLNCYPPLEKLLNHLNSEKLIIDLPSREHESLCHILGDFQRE

[2] = biological target: T2, FLAG-tagged DNA2 transfected into A549 cells (human) (UniProt P51530); assay: co-IP; FLAG-DNA2 or empty vector transfected into A549; 2 mM HU for 3 h; lysate pulled down with FLAG M2 beads; western blot
T2 sequence: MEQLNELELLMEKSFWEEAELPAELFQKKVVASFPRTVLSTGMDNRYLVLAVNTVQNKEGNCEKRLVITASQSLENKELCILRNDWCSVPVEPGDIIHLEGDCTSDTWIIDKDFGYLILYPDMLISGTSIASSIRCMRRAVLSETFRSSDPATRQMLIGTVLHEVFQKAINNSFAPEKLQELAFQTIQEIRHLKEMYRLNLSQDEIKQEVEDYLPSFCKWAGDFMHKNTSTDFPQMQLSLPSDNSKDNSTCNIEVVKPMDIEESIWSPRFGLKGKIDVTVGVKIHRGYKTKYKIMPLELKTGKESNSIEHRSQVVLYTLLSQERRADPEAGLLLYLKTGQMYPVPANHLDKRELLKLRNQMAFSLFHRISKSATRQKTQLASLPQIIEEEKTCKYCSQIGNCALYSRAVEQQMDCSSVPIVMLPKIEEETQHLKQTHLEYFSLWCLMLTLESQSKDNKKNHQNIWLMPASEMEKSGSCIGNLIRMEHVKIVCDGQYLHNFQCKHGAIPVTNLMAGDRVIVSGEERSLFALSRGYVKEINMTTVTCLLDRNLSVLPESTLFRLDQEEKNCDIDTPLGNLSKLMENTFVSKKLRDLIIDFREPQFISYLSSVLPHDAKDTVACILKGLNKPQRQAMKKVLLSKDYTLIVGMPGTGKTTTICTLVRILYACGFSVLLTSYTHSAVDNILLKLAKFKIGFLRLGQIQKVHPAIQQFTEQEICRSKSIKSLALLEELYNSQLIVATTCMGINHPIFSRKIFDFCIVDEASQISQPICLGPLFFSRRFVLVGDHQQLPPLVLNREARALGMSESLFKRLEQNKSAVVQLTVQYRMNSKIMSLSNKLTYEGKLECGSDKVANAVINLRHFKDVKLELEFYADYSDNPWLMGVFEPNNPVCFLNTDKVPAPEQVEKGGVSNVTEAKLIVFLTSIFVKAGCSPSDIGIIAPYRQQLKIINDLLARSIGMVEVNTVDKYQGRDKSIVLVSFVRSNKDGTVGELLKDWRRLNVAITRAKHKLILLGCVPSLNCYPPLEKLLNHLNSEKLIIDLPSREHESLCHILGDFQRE

[3] = biological target: RAD51 in cell extracts (human (endogenous in A549 and U2OS)) (UniProt Q06609); assay: co-IP; U2OS nuclear extract treated with Benzonase; RAD51 antibody or IgG control overnight at 4 C, Protein A agarose beads; western blot
[4] = biological target: T3, FLAG-DNA2 over-expressed in U2OS cells (human) (UniProt P51530); assay: co-IP; FLAG-DNA2 over expressed in U2OS; nuclear extract treated with Benzonase; pulled down with M2 beads, eluted with FLAG peptide; immunoblot
T3 sequence: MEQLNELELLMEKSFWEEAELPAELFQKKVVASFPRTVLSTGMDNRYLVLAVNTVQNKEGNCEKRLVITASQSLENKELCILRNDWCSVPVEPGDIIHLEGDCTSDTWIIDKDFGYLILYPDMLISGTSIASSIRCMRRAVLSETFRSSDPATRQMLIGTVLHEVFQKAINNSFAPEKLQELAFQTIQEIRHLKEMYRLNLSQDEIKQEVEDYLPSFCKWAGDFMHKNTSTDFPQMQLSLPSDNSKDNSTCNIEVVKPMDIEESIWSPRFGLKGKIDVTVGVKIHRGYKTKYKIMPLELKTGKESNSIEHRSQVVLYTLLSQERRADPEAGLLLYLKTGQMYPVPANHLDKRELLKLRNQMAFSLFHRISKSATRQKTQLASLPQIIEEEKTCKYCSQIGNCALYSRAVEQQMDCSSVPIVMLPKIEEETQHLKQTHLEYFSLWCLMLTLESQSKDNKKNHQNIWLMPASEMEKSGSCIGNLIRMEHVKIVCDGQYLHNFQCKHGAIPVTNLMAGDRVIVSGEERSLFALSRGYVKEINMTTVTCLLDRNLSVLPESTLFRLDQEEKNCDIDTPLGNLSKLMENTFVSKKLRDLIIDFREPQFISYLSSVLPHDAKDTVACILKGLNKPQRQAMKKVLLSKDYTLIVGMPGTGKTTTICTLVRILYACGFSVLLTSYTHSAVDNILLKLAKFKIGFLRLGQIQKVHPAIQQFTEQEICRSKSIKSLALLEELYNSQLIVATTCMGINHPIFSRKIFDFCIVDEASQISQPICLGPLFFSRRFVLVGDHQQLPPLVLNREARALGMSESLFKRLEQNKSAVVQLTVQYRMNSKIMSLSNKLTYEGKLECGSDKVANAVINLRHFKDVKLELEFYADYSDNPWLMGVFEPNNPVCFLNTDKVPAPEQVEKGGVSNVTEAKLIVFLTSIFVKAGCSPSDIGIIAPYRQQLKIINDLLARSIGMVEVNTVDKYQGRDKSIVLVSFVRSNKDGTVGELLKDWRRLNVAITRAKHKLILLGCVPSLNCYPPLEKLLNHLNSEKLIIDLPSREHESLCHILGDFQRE

[5] = biological target: RAD51 immunoprecipitated with anti-RAD51 (Supplementary Figure S3A) (UniProt Q06609); assay: co-IP; HU-treated cells; lysate in buffer H150 (50 mM HEPES-KOH pH 7.4, 150 mM NaCl, 0.1% NP40, 10% glycerol); anti-RAD51 (ab133534) and Protein A/G magnetic beads overnight at 4 C; western blot (Supplementary Figure S3A)
FLAG-FANCD2 (human) = FLAG-FANCD2 (human) (UniProt Q9BXW9); assay: co-IP; HEK-293T lysates with over-expressed FLAG-DNA2 proteins supplemented with 2 nM FLAG-FANCD2; pulled down with FANCD2 antibody on magnetic beads; western blot with 3xFLAG antibody; only the target purified

Molecule | binding [1] | binding [2] | binding [5] | also measured
FANCD2 fragment F1, a.a. 1-588 (from UniProt Q9BXW9 1-588) (domain or fragment) | binds |  |  | 
FANCD2 fragment F4, a.a. 1178-1451 (from UniProt Q9BXW9 1178-1451) (domain or fragment) | binds |  |  | 
RAD51 in cell extracts (from UniProt Q06609 1-339) |  | binds |  | 
endogenous FANCD2 (from UniProt Q9BXW9 1-1451) |  | binds | binds | binding [3]: binds; binding [4]: binds
endogenous DNA2 (enzyme, UniProt P51530 1-1060) MEQLNELELLMEKSFWEEAELPAELFQKKVVASFPRTVLSTGMDNRYLVLAVNTVQNKEGNCEKRLVITASQSLENKELCILRNDWCSVPVEPGDIIHLEGDCTSDTWIIDKDFGYLILYPDMLISGTSIASSIRCMRRAVLSETFRSSDPATRQMLIGTVLHEVFQKAINNSFAPEKLQELAFQTIQEIRHLKEMYRLNLSQDEIKQEVEDYLPSFCKWAGDFMHKNTSTDFPQMQLSLPSDNSKDNSTCNIEVVKPMDIEESIWSPRFGLKGKIDVTVGVKIHRGYKTKYKIMPLELKTGKESNSIEHRSQVVLYTLLSQERRADPEAGLLLYLKTGQMYPVPANHLDKRELLKLRNQMAFSLFHRISKSATRQKTQLASLPQIIEEEKTCKYCSQIGNCALYSRAVEQQMDCSSVPIVMLPKIEEETQHLKQTHLEYFSLWCLMLTLESQSKDNKKNHQNIWLMPASEMEKSGSCIGNLIRMEHVKIVCDGQYLHNFQCKHGAIPVTNLMAGDRVIVSGEERSLFALSRGYVKEINMTTVTCLLDRNLSVLPESTLFRLDQEEKNCDIDTPLGNLSKLMENTFVSKKLRDLIIDFREPQFISYLSSVLPHDAKDTVACILKGLNKPQRQAMKKVLLSKDYTLIVGMPGTGKTTTICTLVRILYACGFSVLLTSYTHSAVDNILLKLAKFKIGFLRLGQIQKVHPAIQQFTEQEICRSKSIKSLALLEELYNSQLIVATTCMGINHPIFSRKIFDFCIVDEASQISQPICLGPLFFSRRFVLVGDHQQLPPLVLNREARALGMSESLFKRLEQNKSAVVQLTVQYRMNSKIMSLSNKLTYEGKLECGSDKVANAVINLRHFKDVKLELEFYADYSDNPWLMGVFEPNNPVCFLNTDKVPAPEQVEKGGVSNVTEAKLIVFLTSIFVKAGCSPSDIGIIAPYRQQLKIINDLLARSIGMVEVNTVDKYQGRDKSIVLVSFVRSNKDGTVGELLKDWRRLNVAITRAKHKLILLGCVPSLNCYPPLEKLLNHLNSEKLIIDLPSREHESLCHILGDFQRE |  |  | binds | 
FLAG-tagged human DNA2 from 293T cells (enzyme, UniProt P51530 1-1060, looked up, human DNA2 helicase/nuclease; also called FLAG-DNA2; hDNA2; source: 293T, over-expressed, purified (M2 FLAG beads, 3x FLAG peptide elution); HEK-293T, over-expressed, in lysate) MEQLNELELLMEKSFWEEAELPAELFQKKVVASFPRTVLSTGMDNRYLVLAVNTVQNKEGNCEKRLVITASQSLENKELCILRNDWCSVPVEPGDIIHLEGDCTSDTWIIDKDFGYLILYPDMLISGTSIASSIRCMRRAVLSETFRSSDPATRQMLIGTVLHEVFQKAINNSFAPEKLQELAFQTIQEIRHLKEMYRLNLSQDEIKQEVEDYLPSFCKWAGDFMHKNTSTDFPQMQLSLPSDNSKDNSTCNIEVVKPMDIEESIWSPRFGLKGKIDVTVGVKIHRGYKTKYKIMPLELKTGKESNSIEHRSQVVLYTLLSQERRADPEAGLLLYLKTGQMYPVPANHLDKRELLKLRNQMAFSLFHRISKSATRQKTQLASLPQIIEEEKTCKYCSQIGNCALYSRAVEQQMDCSSVPIVMLPKIEEETQHLKQTHLEYFSLWCLMLTLESQSKDNKKNHQNIWLMPASEMEKSGSCIGNLIRMEHVKIVCDGQYLHNFQCKHGAIPVTNLMAGDRVIVSGEERSLFALSRGYVKEINMTTVTCLLDRNLSVLPESTLFRLDQEEKNCDIDTPLGNLSKLMENTFVSKKLRDLIIDFREPQFISYLSSVLPHDAKDTVACILKGLNKPQRQAMKKVLLSKDYTLIVGMPGTGKTTTICTLVRILYACGFSVLLTSYTHSAVDNILLKLAKFKIGFLRLGQIQKVHPAIQQFTEQEICRSKSIKSLALLEELYNSQLIVATTCMGINHPIFSRKIFDFCIVDEASQISQPICLGPLFFSRRFVLVGDHQQLPPLVLNREARALGMSESLFKRLEQNKSAVVQLTVQYRMNSKIMSLSNKLTYEGKLECGSDKVANAVINLRHFKDVKLELEFYADYSDNPWLMGVFEPNNPVCFLNTDKVPAPEQVEKGGVSNVTEAKLIVFLTSIFVKAGCSPSDIGIIAPYRQQLKIINDLLARSIGMVEVNTVDKYQGRDKSIVLVSFVRSNKDGTVGELLKDWRRLNVAITRAKHKLILLGCVPSLNCYPPLEKLLNHLNSEKLIIDLPSREHESLCHILGDFQRE |  |  |  | binding (FLAG-FANCD2 (human)): binds
